For assay [1], the target named is T1, PGC-1α (overexpression plasmid, 293T cells) (UniProt Q9UBK2).
T1 sequence: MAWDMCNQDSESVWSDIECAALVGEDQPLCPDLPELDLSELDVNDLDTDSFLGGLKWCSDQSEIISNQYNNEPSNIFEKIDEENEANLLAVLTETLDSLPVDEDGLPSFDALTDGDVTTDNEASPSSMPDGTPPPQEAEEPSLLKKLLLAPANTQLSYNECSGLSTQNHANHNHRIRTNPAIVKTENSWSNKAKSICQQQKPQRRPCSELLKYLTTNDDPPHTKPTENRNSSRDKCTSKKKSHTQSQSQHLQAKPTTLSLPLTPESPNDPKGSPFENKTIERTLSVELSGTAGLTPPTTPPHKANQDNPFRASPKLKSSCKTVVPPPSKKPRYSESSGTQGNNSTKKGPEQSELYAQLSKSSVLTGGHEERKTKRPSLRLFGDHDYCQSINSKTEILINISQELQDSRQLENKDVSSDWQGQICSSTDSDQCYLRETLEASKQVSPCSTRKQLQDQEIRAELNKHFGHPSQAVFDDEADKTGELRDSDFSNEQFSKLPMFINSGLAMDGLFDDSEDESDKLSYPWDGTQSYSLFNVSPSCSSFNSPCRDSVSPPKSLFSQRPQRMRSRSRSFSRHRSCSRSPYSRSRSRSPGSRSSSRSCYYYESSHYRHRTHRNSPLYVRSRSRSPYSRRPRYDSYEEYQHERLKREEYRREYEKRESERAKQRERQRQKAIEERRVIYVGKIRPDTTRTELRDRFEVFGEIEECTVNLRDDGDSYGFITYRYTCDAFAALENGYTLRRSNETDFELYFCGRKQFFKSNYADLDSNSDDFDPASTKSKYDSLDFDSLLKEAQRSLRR
Kind of assay: co-IP; 293T cells overexpressing wild type or truncated flag-LMP1, PRMT1 and PGC-1α at once; which protein was precipitated is not told.

By UniProt entry, the sequences of proteins in these tests, tags left out.
UniProt Q99873: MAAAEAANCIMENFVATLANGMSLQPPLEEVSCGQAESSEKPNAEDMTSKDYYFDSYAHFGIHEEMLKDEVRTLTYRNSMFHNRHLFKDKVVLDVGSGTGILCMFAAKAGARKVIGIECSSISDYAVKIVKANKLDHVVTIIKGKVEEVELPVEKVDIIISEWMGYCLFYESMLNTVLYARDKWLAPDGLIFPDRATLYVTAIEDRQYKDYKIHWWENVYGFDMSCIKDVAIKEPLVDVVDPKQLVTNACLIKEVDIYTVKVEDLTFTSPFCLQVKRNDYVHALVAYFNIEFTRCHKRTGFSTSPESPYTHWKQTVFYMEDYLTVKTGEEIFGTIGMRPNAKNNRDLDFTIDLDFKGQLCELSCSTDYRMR

Assay [2] addresses T2, Peroxisome proliferator activated receptor coactivator-1a (PGC-1α) (human (endogenous in CNE1/CM and HNE2/HM)) (UniProt Q9UBK2).
T2 sequence: T1 sequence
The experiment in a line: co-IP; endogenous PRMT1 and PGC-1α in lysates of CNE1/CM and HNE2/HM cells cultured in suspension; also CM and HM cells with LMP1 knocked down; which protein was precipitated is not told.

No constants are given. Whether binding was seen depends on the method and setting. Binding seen in cells or lysates may run through a third protein. Some results given as binding are weak or reduced against the parent protein; the word gives no strength.

For the substance “PRMT1 (overexpression plasmid, 293T cells) (from UniProt Q99873 1-371) (enzyme)”, the binding result in assay [1] was “binds”.
As for “Arginine methyltransferase 1 (PRMT1) (from UniProt Q99873 1-371) (enzyme)”, the binding result in assay [2] is “binds”.

Source of the values: PMC10559433.
